Measurements reported in US20220322709A1, “METHODS AND COMPOSITIONS FOR IMPROVED TASTE QUALITY” (ALMENDRA PTE. LTD., priority 2021, published 2022).
Where no unit stands, none is given here, and values compare only within one read-out.

Assays:
Type in all cases: in vivo, human
[1] = Sweetness Linger standards of the sensory testing methodology; conditions: 10% Sucrose and 500 PPM REBA, in water, perceived sweetness intensity @ 120 sec
[2] = Bitterness of L-Tryptophan in pH 3.2 citric acid buffer with and without taste modulator (tasting)
[3] = Bitterness of L-Phenylalanine in pH 3.2 citric acid buffer with and without taste modulator (tasting); conditions: estimated

C=C1C[C@@]23CC[C@H]4[C@@](C)(CCC[C@@]4(C)C(=O)O[C@@H]4O[C@H](CO)[C@@H](O)[C@H](O)[C@H]4O)[C@@H]2CC[C@]1(O[C@@H]1O[C@H](CO)[C@@H](O)[C@H](O[C@@H]2O[C@H](CO)[C@@H](O)[C@H](O)[C@H]2O)[C@H]1O[C@@H]1O[C@H](CO)[C@@H](O)[C@H](O)[C@H]1O)C3 [REBA]
SL (Sweetness Linger) [1]: 5

N[C@@H](Cc1c[nH]c2ccccc12)C(=O)O [L-Trp, L-Tryptophan]
bitterness intensity ([2]; 7.5 mM L-Trp solution in CAB, 0-15 intensity scale, estimated): 5
onset and linger of bitterness ([2]; L-Trp in CAB): noticeably slow in onset and quite lingering
Bitter Taste Threshold in CAB ([2]; pH 3.2 Citric Acid Buffer, serial dilutions 30 mM to 1.88 mM tasted in ascending order, estimated): ca. 3 mM

N[C@@H](Cc1ccccc1)C(=O)O [L-Phe, L-Phenylalanine]
bitterness intensity ([3]; 7.5 mM L-Phe solution in CAB, 0-15 intensity scale): 5
Bitter Taste Threshold in CAB ([3]; pH 3.2 Citric Acid Buffer, serial dilutions 30 mM to 1.88 mM tasted in ascending order): ca. 3 mM

OC[C@H]1O[C@@](CO)(O[C@H]2O[C@H](CO)[C@@H](O)[C@H](O)[C@H]2O)[C@@H](O)[C@@H]1O [Sucrose]
SL (Sweetness Linger) [1]: 0
